Experimental data: US12370166B2, “Pentadecanoylcarnitine for treatment of conditions related to the quality of aging and longevity” (EPITRACKER, INC., priority 2021, dated 2025)

Assay: Modified fish diet study: serum metabolome, random forest ranking of biochemicals
Format: in vivo, Bottlenose dolphins (Tursiops truncatus)
Details: Month 1, Month 3 and Month 6, p<0.0001

SMILES | Serum concentration, case versus control groups
CCCCCCCCCCCCCCC(=O)O [Pentadecanoic acid (C15:0), Pentadecanoic acid] | higher
CCCCCCCCCCCCCCC(=O)O[C@H](CC(=O)[O-])C[N+](C)(C)C [Pentadecanoylcarnitine, pentadecanoylcarnitine] | higher
